Some of the results follow.

Protein sequences, listed by entry. Tags and fused reporters are not part of them.
UniProt Q0JBA9, entry or part of it: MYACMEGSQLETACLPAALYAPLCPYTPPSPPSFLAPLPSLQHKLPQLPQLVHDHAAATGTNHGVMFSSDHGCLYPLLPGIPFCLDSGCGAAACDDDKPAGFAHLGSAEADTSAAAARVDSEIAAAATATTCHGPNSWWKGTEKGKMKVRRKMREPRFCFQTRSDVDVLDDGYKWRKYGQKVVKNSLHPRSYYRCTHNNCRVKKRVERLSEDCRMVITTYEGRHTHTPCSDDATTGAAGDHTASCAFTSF

The target of this assay is OsWRKY34 (Oryza sativa, UniProt Q0JBA9 1-250). In words: protein-binding microarray (RPBM); PBS, 2% BSA, 51.3 ng/ul salmon testes DNA, 50 uM zinc acetate, 200 nM TF, 25 C, 1 h; high values mean tight binding. The conditions noted are these: protein: recombinant; tags: N-terminal polyhistidine and DsRed monomer fusion (pET32a); label: CyDye5-dUTP incorporated in the synthesized complementary strand; 3' TTTTT single-stranded linker to array surface; dsDNA, one strand shown. In a few lines: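 For the binding signal, per-feature fluorescence intensity was read in arbitrary units on an Axon 4000B scanner. Before scanning, a 2% BSA-blocked custom Agilent array made double-stranded with Cy5-dUTP was washed after 1 h at 25 °C with 200 nM protein and 50 µM zinc acetate. The proteins were Ni–NTA-purified transcription factors with N-terminal polyhistidine and DsRed fusions, expressed in E. coli BL21-CodonPlus.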
As for “TATTCTTTTTGCTTGCTTGGCTCGTTGCTGTCTCCAGAAACGGAGTCACCTAGTGCAG”, the binding signal was 9080 fluorescence intensity (a.u.).
With “CTCTCTTTCATGCGGCCCAAGTCGGCCCAGCCTCAGCTGACGGAGTCACCTAGTGCAG” the figure was 8640 fluorescence intensity (a.u.); with “ACATAAGCATCCGAGGTCATTTCTATTGTTTCTTTTTGTACGGAGTCACCTAGTGCAG”, 13900 fluorescence intensity (a.u.); with “GGGTGACCGGTTTTGTATAGTTAAGTAACCCCGTATATTTCGGAGTCACCTAGTGCAG”, 10600 fluorescence intensity (a.u.).
With “TCTCTCGACGCACGAGTTCAATTTCCACCGCCAGATCAACCGGAGTCACCTAGTGCAG” the figure was 8710 fluorescence intensity (a.u.).
Regarding “GCAAGCGCTCACCTCACCACCTCACCCTGCAGCGACAGAACGGAGTCACCTAGTGCAG”, the binding signal is 8330 fluorescence intensity (a.u.).
With “TTGGGTTTTACTTGCATAATTATTATTCAATTGCTTGATACGGAGTCACCTAGTGCAG” the figure was 10500 fluorescence intensity (a.u.); with “ACCGCCAGTTGCAAGTCCGTCCGCATACTTCAGCCGACATCGGAGTCACCTAGTGCAG”, 9840 fluorescence intensity (a.u.); with “ATTCCATTTAAGTGACGGTATCGTAGCGTAGCCGGTTTTTCGGAGTCACCTAGTGCAG”, 8100 fluorescence intensity (a.u.).
With “ACACCTGGCGTCACGCCATTGGCTAGCACCCACTTTCCCGCGGAGTCACCTAGTGCAG” the figure was 9770 fluorescence intensity (a.u.); with “CCTCGATAGTTGTCTCCGTCATTAATAATTCTCGATTCACCGGAGTCACCTAGTGCAG”, 11200 fluorescence intensity (a.u.).
With “CATGTGCTAAAAAGTCAACGGTATCAAACATTTTTAAACGCGGAGTCACCTAGTGCAG” the figure was 15800 fluorescence intensity (a.u.); with “AACCTTCTATCCCACGGTAACAGCAGCAACACACATGTAACGGAGTCACCTAGTGCAG”, 9050 fluorescence intensity (a.u.).
Consider “CCTCGTCGCCGTGCTCGTCCTCGTCTACGTCCAGGAGAACCGGAGTCACCTAGTGCAG”, for which the binding signal was 8880 fluorescence intensity (a.u.).
With “TCACCTCGTCGACGTCATTCCATACGACTACGACTTTCAGCGGAGTCACCTAGTGCAG” the figure was 8130 fluorescence intensity (a.u.); with “CGTCCTTTTAATTCGTCGTCCAAACCAAACCCGCGCAAGCCGGAGTCACCTAGTGCAG”, 8040 fluorescence intensity (a.u.); with “CAAATTGACACTACATCTAGCTAGCTAGCTAGCTTTGCTCCGGAGTCACCTAGTGCAG”, 8360 fluorescence intensity (a.u.).
“ATCACCCCGCCTCCGCCTCCGCCGCTGGCTGCAGAGACACCGGAGTCACCTAGTGCAG”: the binding signal is 8200 fluorescence intensity (a.u.).
The same measure for “GGCGATACTTCTCTGCAGTACCTCCACACCGCCATGAGGACGGAGTCACCTAGTGCAG”: 9160 fluorescence intensity (a.u.).
With “AGATAGTTCTTGATATCCATGGACCATCATCAGCCATCTTCGGAGTCACCTAGTGCAG” the figure was 9690 fluorescence intensity (a.u.).
With “TTCAGTTTGTTTCTATTAATATTGGTAGTTGTTTAATTTTCGGAGTCACCTAGTGCAG” the figure was 10900 fluorescence intensity (a.u.); with “CATACTCTATTGTCCTGTGCGGTTCATGCATGATTCATCTCGGAGTCACCTAGTGCAG”, 10100 fluorescence intensity (a.u.).
Take “AAGTTGTACAAAAATTCGAGAATTAATTATAGGTCCTTTTCGGAGTCACCTAGTGCAG”: the binding signal is 8090 fluorescence intensity (a.u.).
Take “TCCTACAAGTGGTATCAGAGCCTTGTTTTCTTCTTTGGATCGGAGTCACCTAGTGCAG”: the binding signal is 8620 fluorescence intensity (a.u.).
The same measure for “CCTCTCGCAACTAACCACGCCACGTATGCCGGGTCGCACCCGGAGTCACCTAGTGCAG”: 8040 fluorescence intensity (a.u.); for “CCCAAAACCGATCCATTCATTCGCCAACCACGCCGTCCGCCGGAGTCACCTAGTGCAG”: 8790 fluorescence intensity (a.u.).
Regarding “AATCGCCTATTGCTCCATGAATCACTCACTGAAAATGACTCGGAGTCACCTAGTGCAG”, the binding signal was 9250 fluorescence intensity (a.u.).
In the case of “TCCAGCTCGATTGTCCGCTCCGAAATCCCCAACCTAGCACCGGAGTCACCTAGTGCAG”, the binding signal is 8460 fluorescence intensity (a.u.).
The same measure for “ACCTCTGCTCTATTAACTCTTGGCTACTCTCTCCTCTCTTCGGAGTCACCTAGTGCAG”: 9800 fluorescence intensity (a.u.); for “CTACACGCATCATTCTTCCTCTTCCTCTTCTTAGGTCGCTCGGAGTCACCTAGTGCAG”: 10000 fluorescence intensity (a.u.).
With “AAGTTCATCTAAGGTCCCTTATCTTGTCGTTGAGTTTTAACGGAGTCACCTAGTGCAG”, the binding signal was 8670 fluorescence intensity (a.u.).
On to “ATCGGGTCGGTCGCTTATCGTCTTCGCCTTCCGCCAGGAGCGGAGTCACCTAGTGCAG”, for which the binding signal is 11800 fluorescence intensity (a.u.).
As to “TTCTTGCTCCAATCTCCTCTTGTTTTCTTGCTGGGAGTTGCGGAGTCACCTAGTGCAG”, the binding signal was 8560 fluorescence intensity (a.u.).
The same measure for “TAGTTTCTTCATTTTTATGATTTTATCCAATGCTATTTTTCGGAGTCACCTAGTGCAG”: 9440 fluorescence intensity (a.u.).
Turning to “CCGATCCGACCCAACCATCTTCTTCCTCGCGTCGCCTCGCCGGAGTCACCTAGTGCAG”, the binding signal was 8420 fluorescence intensity (a.u.).
For “ACTTCGTCGTCTTCCTCTGCTGCTTCCTTCTCCTCCAAGCCGGAGTCACCTAGTGCAG”, the binding signal is 8250 fluorescence intensity (a.u.).
With “ATATCGAGTATTTCTCAGTTCTCACAATTTGGATTTCAGTCGGAGTCACCTAGTGCAG”, the binding signal was 8640 fluorescence intensity (a.u.).
With “TATGGTGCTCATTTCTCGAGGGATGTGATTTCAGTTTCAACGGAGTCACCTAGTGCAG” the figure was 8430 fluorescence intensity (a.u.); with “TCACAAGTCACCAAGACAACCGCACTTGCACTATCCGCATCGGAGTCACCTAGTGCAG”, 8040 fluorescence intensity (a.u.).
With “TACATGCAAACTGTACAATTATTTTTTTTCGTCCACATTTCGGAGTCACCTAGTGCAG” the figure was 10400 fluorescence intensity (a.u.); with “TCAAACGCGCCAATCCGACCGTTACCCACATTAAAAAAAACGGAGTCACCTAGTGCAG”, 8700 fluorescence intensity (a.u.); with “TATATAGATACTGGCCATGTTTAGTTCGCTGTCCAATTTTCGGAGTCACCTAGTGCAG”, 11700 fluorescence intensity (a.u.).
As to “TACTCCTCCTCATTGGCCAAATGGTCATCACTCTGTCTTCCGGAGTCACCTAGTGCAG”, the binding signal is 8350 fluorescence intensity (a.u.).
With “CCTCTAGGATTGTCGTGGCTATGGCATATCTCGTGTGTGACGGAGTCACCTAGTGCAG” the figure was 8370 fluorescence intensity (a.u.); with “AAAAGCACTATTCACCCCAAATTTGTCTTTTTTTTTCTCTCGGAGTCACCTAGTGCAG”, 8560 fluorescence intensity (a.u.).
The same measure for “TCTGCCACTGTCGTCGAGCTCGCATTCCGTTCCGCCATTGCGGAGTCACCTAGTGCAG”: 9430 fluorescence intensity (a.u.); for “TTGGAGAGGCACATGCTGATGAGGCGGAGGAGGGGCGGCGCGGAGTCACCTAGTGCAG”: 9320 fluorescence intensity (a.u.).
The same measure for “CAATTTTGTCTTTTTGAAATTTCTCTATCCTCTTTTTATACGGAGTCACCTAGTGCAG”: 11900 fluorescence intensity (a.u.); for “AGGGGTATTTTGGTCATTTCGACAAATTTGTACAGTACTACGGAGTCACCTAGTGCAG”: 10300 fluorescence intensity (a.u.).
Take “ATTTTGTCATTTCGATTCACACTTGCGCTGTAGCCGAATTCGGAGTCACCTAGTGCAG”: the binding signal was 11200 fluorescence intensity (a.u.).
With “ACACGGGTGGGTAACAATTACATGGCTGAGAGCAGATGACCGGAGTCACCTAGTGCAG” the figure was 9840 fluorescence intensity (a.u.).
Consider “CCTACGATCTACGGCCTTGTTTGGCAGTTCTGCTTGGTTTCGGAGTCACCTAGTGCAG”, for which the binding signal was 9980 fluorescence intensity (a.u.).
With “TGTTTCTGTCTGTCCACCCTGCTGCTGCTGCCTCGTTTGACGGAGTCACCTAGTGCAG” the figure was 9640 fluorescence intensity (a.u.); with “TTCTTTTGGCCCTTGCACACTCCTGAACCGCAGATTTCTACGGAGTCACCTAGTGCAG”, 11600 fluorescence intensity (a.u.).

(Values after paper PMC7819943, “Rice protein-binding microarrays: a tool to detect cis-acting elements near promoter regions in rice”.)
